The target of this data set is Sam68 QUA1-KH (UniProt Q07666). Nature of the data set: EMSA. The following applies: 40 uM RNA, 10-200 uM protein, weaker than unmodified RNA; 2'-OCF3 at A20; recombinant protein; residues 96-260; protein details: N-terminal His6-TEV (pLEICS-01), TEV-treated; label: 19F (2'-OCF3 at A20). For orientation: A gel shift assay detects complexes by their altered migration in electrophoresis.

By UniProt entry, the sequences of proteins in these tests, tags left out. Residues count along the entry.
UniProt Q07666, 96-260: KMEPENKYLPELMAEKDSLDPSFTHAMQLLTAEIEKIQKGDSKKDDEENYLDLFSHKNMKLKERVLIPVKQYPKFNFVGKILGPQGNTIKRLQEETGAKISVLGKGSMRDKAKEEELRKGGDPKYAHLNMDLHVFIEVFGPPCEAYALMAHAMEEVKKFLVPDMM

For at least one entry, the source does not settle the construct or the ends of the probe. Weaker means in comparison with the reference protein, sequence or condition of that experiment.

This is an account of results in PMC10899400.

Take “UUACAGGGUUUUAGACAAAAU [RNA3 (2'-OCF3-A20)]”: the binding result is given as “binds more weakly”.
